In patent US9073976B2, “ND2 peptides and methods of treating neurological disease” (NoNO Inc., priority 2010, dated 2015):
At least one peptide structure holds a part that was inferred or is arguable (an end, a ring closure or a residue). Some entries share one result that the patent states for a list of compounds. No end group written: not given here.

Key:
[1] = test system: rats with peripheral nerve injury (PNI); test: Peripheral nerve injury (chronic sciatic nerve constriction) model, intravenous peptide; type: in vivo, rat; conditions: 1 nmol/g intravenously, 8-15 d after PNI
[2] = Arterial blood pressure after rapid high-dose intravenous bolus; conditions: ~25 mg/kg bolus injection into the tail vein
Experimental: Rats with surgically implanted devices to measure arterial pressure were dosed with ˜25 mg/kg of the respective peptides as a bolus injection into the tail vein at 10 minutes post monitoring.

Sequence: YGRKKRRQRRRNVKMKWQFEHTK [Tat-ND2 310-321]
- paw withdrawal threshold ipsilateral to the nerve injury [1]: significant increase in paw withdrawal threshold
- time for blood pressure drops to resolve without intervention [2]: 10 to 15 min
